Screen size: about 360,000 compounds; about 9,100 (2.5%) were called active. Inconclusive results, whose numbers are uncertain, are shown with a selection of clear calls. No stated cut-off is given here; in the data, active means max response below about -50%; inconclusive means no clear call, values can overlap the other calls; inactive means above that.
These compounds were tested against D(3) dopamine receptor (Homo sapiens) (UniProt P35462) (assay: qHTS of D3 Dopamine Receptor Antagonist: qHTS). Conditions: D3R cells, DiscoveRx beta-arrestin luminescence, antagonist mode; hits give low values.
How it was run: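 Cells expressing the human receptor were seeded at 1500 cells/well, incubated overnight at 37 degrees C in 5% CO2, then exposed to library compounds with dopamine controls for 90 minutes at 37 degrees C before luminescent detection.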
On the % scale 0 is the no-effect control and ±100 the full control effect.

Chains of the proteins cited; added tags and fusions are not shown.
UniProt P35462, whole entry, looked up: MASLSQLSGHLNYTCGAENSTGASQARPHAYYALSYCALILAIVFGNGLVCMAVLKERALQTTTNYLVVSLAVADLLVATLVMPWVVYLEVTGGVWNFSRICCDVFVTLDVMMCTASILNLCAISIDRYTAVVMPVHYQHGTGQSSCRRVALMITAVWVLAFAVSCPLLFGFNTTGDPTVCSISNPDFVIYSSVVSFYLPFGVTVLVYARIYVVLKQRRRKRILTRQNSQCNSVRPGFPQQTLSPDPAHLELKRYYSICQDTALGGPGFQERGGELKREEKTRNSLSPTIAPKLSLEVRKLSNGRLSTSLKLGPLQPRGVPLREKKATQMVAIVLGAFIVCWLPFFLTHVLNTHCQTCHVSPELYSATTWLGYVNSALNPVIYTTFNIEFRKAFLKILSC

| Compound | max response, negative = inhibition |
| --- | --- |
| COc1ccc(C2Cc3ccccc3C(=O)O2)cc1 (stereo not drawn) | inactive: -1.79% |
| O=C(NCc1ccco1)c1c2c(nc3ccccc13)CCC2 | active: -59.1% |
| Cc1cc(C)cc(-n2c3ccc(NC(=O)Cc4cccc5ccccc45)cc3c(=O)n2C)c1 | inactive: -14.2% |
| O=c1oc2ccc(Cl)cc2nc1/C=C(\O)c1ccco1 | inconclusive: -42.6% |
| CN1CCN(C2CN(Cc3cn(Cc4cccc(C(F)(F)F)c4)nn3)S(=O)(=O)C2)CC1 (stereo not drawn) | active: -50.9% |
| O=C(COc1ccc([N+](=O)[O-])cc1)NNC(=O)Nc1ccc([N+](=O)[O-])cc1 | inconclusive: -32.4% |
| O=CN/N=C/c1c(O)ccc2ccccc12 | inactive: 10.5% |
| Cc1ccc(C(=O)N/N=C\c2cc3c(cc2Br)OCO3)cn1 | inconclusive: -42.3% |
| COc1cc(OC)nc(C(NC(=O)C2CCN(Cc3ccc(Oc4ccccc4)cc3)CC2)c2ccccc2C)n1 (stereo not drawn) | inactive: -27.9% |
| C=CCc1cccc(CNc2nc3ccccc3n2CC)c1O | inactive: 1.82% |
| Cc1ccc(NC(=O)c2cnc(SCC(=O)NCC3CCCO3)n(C)c2=O)cc1C (stereo not drawn) | inactive: 0% |
| Cc1ccc2cc(CN(C(=O)c3cccs3)c3ccccc3)c(=O)[nH]c2c1 | inactive: 3.22% |
| COc1ccc(S(=O)(=O)N2CCN(CCO)CC2)cc1-c1nnc2c3ccccc3c(C)nn12 | inconclusive: -45% |
| CNC1=C(N(C(C)=O)c2ccc(Br)cc2)C(=O)c2ccccc2C1=O | inactive: -22.5% |
| C[C@@H]1CN([C@H](C)CO)C(=O)CCCn2nncc2CO[C@H]1CN(C)C(=O)Nc1ccc2c(c1)OCO2 | inconclusive: -43% |
| CN(C)c1ccc(-c2csc(C(C)(O)c3ccc(F)c(F)c3)n2)cc1 (stereo not drawn) | inactive: 7.87% |
| CCc1nc2ccc(C(=O)Nc3ccc(NC(C)=O)cc3)cc2nc1CC | inconclusive: -36.5% |
| COc1cccc(NC(=S)N(CCc2nc3cc(C)c(C)cc3[nH]2)Cc2cccnc2)c1 | inconclusive: -31.6% |
| Cc1cccc(NC(=O)CSc2nc3ccccc3nc2N2CCCC2)c1 | inactive: 25% |
| Oc1ccc(C[C@H]2CNC(=S)N2CC2CCCN2C[C@H](Cc2ccc(O)cc2)N2C[C@H](Cc3ccc(O)cc3)N(CC3CCCCC3)C2=S)cc1 (stereo partly drawn) | inconclusive: -46.9% |
| COc1ccc(OC)c(NC(=O)COC(=O)CCS(=O)(=O)c2ccc(Cl)cc2)c1 | inactive: -15.4% |
| O=C(CN1CCN(Cc2ccc3c(c2)OCO3)CC1)N1CCc2[nH]c3ccc(F)cc3c2C1 | inconclusive: -30.4% |
| Nc1nc(CN2CCc3ccccc3C2)nc(Nc2ccccc2)n1 | inconclusive: -32.1% |

Ordered by SMILES length (ascending): part of the list above

| Compound | max response, negative = inhibition |
| --- | --- |
| Cc1ccc(C(=O)N/N=C\c2cc3c(cc2Br)OCO3)cn1 | inconclusive: -42.3% |
| CN(C)c1ccc(-c2csc(C(C)(O)c3ccc(F)c(F)c3)n2)cc1 (stereo not drawn) | inactive: 7.87% |
| COc1ccc(OC)c(NC(=O)COC(=O)CCS(=O)(=O)c2ccc(Cl)cc2)c1 | inactive: -15.4% |
